# In PubChem BioAssay AID493069 (Broad Institute, 2011):
# The shares of active, inactive and inconclusive entries below differ from those in the screen. Calls of active or inactive are those of the source.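 The calls were made as follows: active = growth-curve midpoint potency at or below a set limit tied to the top tested dose, or full inhibition throughout; inconclusive = flat partial inhibition between 30 and 70%, or poor fit; inactive = the rest.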
# Test: growth inhibition of resistant C. albicans with fluconazole, dose response, antifungal resistance reversal project, CaCi-8 resistant strain, dry powder, set 6 (AID 493069)
# Conditions: C. albicans CaCi-8 + fluconazole, Alamar Blue, 48 h; at 26 µM (top of the series)
# Outline: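 Assay system: Fluconazole-resistant Candida albicans isolate CaCi-8 | Quantity: Fungal inoculum at starting OD600 of 0.00015 | Medium: MOPS-buffered RPMI 1640 defined medium plus Pen/Strep | Also added: Fluconazole at 8 µg/mL in the growth medium | Times: Compound exposure 48 h 37 °C, Alamar Blue 2 h RT | Signal: Alamar Blue fluorescence, Ex 544/Em 590 nm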
row,SMILES,"growth change, negative = inhibition"
1,CCN(CC)C(=O)Cn1c2ccccc2c2nc3n(c(=O)c21)CCS3,inconclusive: -14.8%
2,O=C(Cn1c2ccc(F)cc2c2nc3n(c(=O)c21)CCS3)N1CCCCC1,inactive: -17%
3,COc1ccc(NC(=O)Cn2c3ccccc3c3nc4n(c(=O)c32)CCS4)cc1,inconclusive: -44.6%
4,COc1ccc2c(c1)c1nc3n(c(=O)c1n2CC(=O)N1CCC(Cc2ccccc2)CC1)CCS3,inconclusive: -30.9%
5,COC(=O)Cn1c(-c2ccccc2)nc2ccccc21,inconclusive: -39.7%
